Construct, isoform or probe ends are uncertain for at least one entry. At least one verdict rests on a figure or table, not on a statement of the authors.
Target: prostate specific antigen (PSA) (UniProt P07288)
Experiment: aptasensor: hairpin opening read by HCR, GelRed and graphene oxide fluorescence (indirect)
Details: H2 and H3 hairpins, GelRed, GO, response linear 0.1-200 ng/mL PSA, LOD 10 pg/mL (not a Kd); commercial protein; folded or branched DNA

By UniProt entry, the sequences of proteins in these tests, tags left out. Residues count along the entry.
UniProt P07288, 25-261: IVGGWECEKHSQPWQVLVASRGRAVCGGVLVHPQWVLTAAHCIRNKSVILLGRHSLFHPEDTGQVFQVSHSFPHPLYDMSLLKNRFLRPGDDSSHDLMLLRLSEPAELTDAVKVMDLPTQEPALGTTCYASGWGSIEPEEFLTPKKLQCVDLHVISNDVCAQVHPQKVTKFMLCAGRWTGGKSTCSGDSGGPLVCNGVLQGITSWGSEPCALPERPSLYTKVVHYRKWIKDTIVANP

## AGCTTTAATTAACATGTCCGACAAAAAAAAATTAATTAAAGCTCGCCATCAAATAGC [H1 (PSA aptamer hairpin with HCR trigger)]
  binding result: binds

Source: publication PMC6429520
